The list does not hold the whole screen: it is rich in T/C values a quarter to a half above the control, in often repeated tests (any T/C) and in doses without a T/C. Other doses and runs of a compound stand elsewhere. T/C gives the treated animals as a percentage of the vehicle group. Some doses have a count of surviving animals in place of a T/C: the source files T/C as zero there, which appears to mark a toxic dose or a test without result, not a measured value. Some survivor counts are full or nearly so, which does not show that the dose was tolerated: survival well below the control is almost never listed, so the zero probably covers shortened survival too. Survivors were counted at the toxicity check, usually on the fifth day, unless a day is given; later deaths do not show. Schedule codes are those of the source, taken here to give the interval after Q, in days (D) or hours (H), and the number of doses after X. Some schedules carry Z or #; the key to these is not given. Some entries hold several experiments; their values stand side by side, smallest first. For survival time, this PubChem deposit counts one and a half times the control or more as active, and values a quarter to a half above the control carry no call in these data; other NCI protocols may use other cut-offs. Marks such as (2×) give the number of equal values in this list. Some T/C values are followed by the survivors on the day toxicity was checked, most often the fifth; without a count, all were alive then.
System: L1210 leukemia ip in BDF1 mice, survival T/C
Assay: NCI In Vivo Anticancer Drug Screen. Data for tumor model L1210 Leukemia (intraperitoneal) in B6D2F1 (BDF1) mice
Conditions: T/C endpoint: mean survival time, vehicle: saline, higher T/C = longer survival
[1] = dose: 134.0 mg/kg/injection, schedule: Q01DX001 (ip)
[2] = dose: 200.0 mg/kg/injection, schedule: Q01DX001 (ip)
[3] = dose: 400.0 mg/kg/injection, schedule: Q01DX001 (ip)

Q: Which results are given for CSc1ncnc2c1ncn2C1OC(CO)C(O)C1O (configuration not stated)?
A: T/C (dose: 25.0 mg/kg/injection, schedule: Q01DX009 (ip)): 136 % of control; T/C (dose: 26.0 mg/kg/injection, schedule: Q01DX015 (ip)): 133 % of control (2×); T/C (dose: 26.0 mg/kg/injection, schedule: Q07DX003 (ip)): 126 and 131 % of control; T/C (dose: 27.0 mg/kg/injection, schedule: Q01DX009 (ip), evaluated on day 5): 158 and 159 % of control; T/C (dose: 27.0 mg/kg/injection, schedule: Q01DX009 (ip), evaluated on day 45): 158 and 159 % of control; T/C (dose: 30.0 mg/kg/injection, schedule: Q01DX015 (ip)): 142 % of control; T/C (dose: 30.0 mg/kg/injection, schedule: Q02DX008 (ip)): 127 % of control; T/C (dose: 31.0 mg/kg/injection, schedule: Q01DX015 (ip)): 140, 151, 152, 154, 183 % of control; T/C (dose: 32.0 mg/kg/injection, schedule: Q01DX009 (ip)): 94, 116, 134, 185 % of control; survivor count (dose: 32.0 mg/kg/injection, schedule: Q01DX010 (ip)): 6 of 6; T/C (dose: 32.0 mg/kg/injection, schedule: Q01DX015 (ip), evaluated on day 5): 103, 115, 121, 122, 129, 146, 151, 156, 160 % of control; T/C (dose: 32.0 mg/kg/injection, schedule: Q01DX015 (ip), evaluated on day 35): 129 % of control; T/C (dose: 32.0 mg/kg/injection, schedule: Q01DX015 (ip), evaluated on day 45): 121 % of control; T/C (dose: 32.0 mg/kg/injection, schedule: Q01DX Z (ip)): 148 % of control; T/C (dose: 32.0 mg/kg/injection, schedule: Q## X032 (ip)): 128 % of control; survivor count (dose: 32.0 mg/kg/injection, schedule: Q#A X Z (ip)): 6 of 6; T/C (dose: 40.0 mg/kg/injection, schedule: Q12HX010 (ip)): 131 % of control; survivor count (dose: 40.0 mg/kg/injection, schedule: Q#A X034 (ip)): 1 of 10; T/C (dose: 41.0 mg/kg/injection, schedule: Q01DX009 (ip), evaluated on day 5): 107 and 116 % of control; T/C (dose: 41.0 mg/kg/injection, schedule: Q01DX009 (ip), evaluated on day 45): 107 and 116 % of control; T/C (dose: 45.0 mg/kg/injection, schedule: Q## X004 (ip)): 140 % of control; T/C (dose: 47.0 mg/kg/injection, schedule: Q01DX015 (ip), evaluated on day 5): 81, 95 (2×), 96, 98, 99 (3×), 103, 110, 112, 113, 115 % of control; T/C (dose: 47.0 mg/kg/injection, schedule: Q01DX015 (ip), evaluated on day 35): 96 % of control; T/C (dose: 47.0 mg/kg/injection, schedule: Q01DX015 (ip), evaluated on day 45): 115 % of control; survivor count (dose: 47.0 mg/kg/injection, schedule: Q## X015 (ip)): 10 of 10; T/C (dose: 48.0 mg/kg/injection, schedule: Q## X032 (ip)): 132 and 144 % of control; T/C (dose: 50.0 mg/kg/injection, schedule: Q01DX001 (ip)): 127 % of control; survivor count (dose: 50.0 mg/kg/injection, schedule: Q01DX005 (ip)): 5 of 6; T/C (dose: 52.0 mg/kg/injection, schedule: Q07DX003 (ip)): 134 and 137 % of control; T/C (dose: 60.0 mg/kg/injection, schedule: Q01DX001 (ip)): 133 % of control [7 of 10 alive]; T/C (dose: 64.0 mg/kg/injection, schedule: Q01DX006 (iv)): 126 and 140 % of control; survivor count (dose: 64.0 mg/kg/injection, schedule: Q01DX010 (ip)): 2 of 6; survivor count (dose: 64.0 mg/kg/injection, schedule: Q01DX Z (ip)): 6 of 6; T/C (dose: 67.0 mg/kg/injection, schedule: Q02DX008 (ip)): 140 % of control; T/C (dose: 67.0 mg/kg/injection, schedule: Q## X004 (ip)): 143 % of control; T/C (dose: 72.0 mg/kg/injection, schedule: Q## X032 (ip)): 145 % of control; T/C (dose: 80.0 mg/kg/injection, schedule: Q12HX006 (ip)): 145 % of control; T/C (dose: 90.0 mg/kg/injection, schedule: Q01DX001 (ip)): 125 % of control; T/C (dose: 90.0 mg/kg/injection, schedule: Q03DX006 (ip)): 139 % of control; T/C (dose: 91.0 mg/kg/injection, schedule: Q01DX001 (ip)): 126 % of control; T/C (dose: 91.0 mg/kg/injection, schedule: Q## X001 (ip)): 128 % of control; T/C (dose: 92.0 mg/kg/injection, schedule: Q01DX001 (ip)): 127 % of control; T/C (dose: 100.0 mg/kg/injection, schedule: Q01DX001 (ip)): 125 (2×) and 137 % of control; survivor count (dose: 100.0 mg/kg/injection, schedule: Q01DX003 (ip)): 6 of 10; survivor count (dose: 100.0 mg/kg/injection, schedule: Q01DX005 (ip)): 1 of 6; survivor count (dose: 100.0 mg/kg/injection, schedule: Q01DX009 (ip)): 5 of 6; survivor count (dose: 120.0 mg/kg/injection, schedule: Q01DX Z (oral)): 3 of 6; T/C (dose: 121.0 mg/kg/injection, schedule: Q01DX001 (ip), evaluated on day 46): 144 % of control; T/C (dose: 121.0 mg/kg/injection, schedule: Q01DX001 (ip), run until all animals had died): 141 % of control; T/C (dose: 121.0 mg/kg/injection, schedule: Q## X001 (ip)): 139 % of control; T/C (dose: 128.0 mg/kg/injection, schedule: Q01DX006 (iv)): 125 % of control; T/C [1]: 132 % of control; survivor count [1]: 6 of 10; survivor count (dose: 167.0 mg/kg/injection, schedule: Q01DX001 (ip)): 4 of 10; T/C [2]: 139, 142, 145 [8 of 9 alive], 148 % of control [5 of 6 alive]; survivor count [2]: 1 of 10 and 6 of 10; survivor count (dose: 200.0 mg/kg/injection, schedule: Q01DX005 (ip)): 0 of 6; survivor count (dose: 200.0 mg/kg/injection, schedule: Q01DX009 (ip)): 1 of 6; T/C (dose: 207.0 mg/kg/injection, schedule: Q01DX001 (ip)): 147 % of control [8 of 10 alive]; survivor count (dose: 240.0 mg/kg/injection, schedule: Q01DX Z (oral)): 6 of 6; T/C (dose: 274.0 mg/kg/injection, schedule: Q01DX001 (ip)): 131 % of control [8 of 10 alive]; T/C (dose: 300.0 mg/kg/injection, schedule: Q01DX001 (ip)): 142 % of control [9 of 10 alive]; T/C (dose: 300.0 mg/kg/injection, schedule: Q07DX003 (ip)): 131 % of control [5 of 6 alive]; survivor count (dose: 360.0 mg/kg/injection, schedule: Q03DX006 (ip)): 1 of 6 and 2 of 6; T/C [3]: 144 and 147 % of control; survivor count [3]: 0 of 10 and 2 of 6; survivor count (dose: 400.0 mg/kg/injection, schedule: Q07DX003 (ip)): 2 of 6; survivor count (dose: 420.0 mg/kg/injection, schedule: Q07DX003 (ip)): 3 of 6; survivor count (dose: 450.0 mg/kg/injection, schedule: Q01DX001 (ip)): 1 of 10; survivor count (dose: 720.0 mg/kg/injection, schedule: Q03DX006 (ip)): 0 of 6; survivor count (dose: 800.0 mg/kg/injection, schedule: Q01DX001 (ip)): 6 of 6; survivor count (dose: 1600.0 mg/kg/injection, schedule: Q01DX001 (ip)): 6 of 6

Source: PubChem BioAssay AID248 (DTP/NCI, 2004)
